# Screening data

The results are deposited in PubChem (AID504749; NCATS, 2011).

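Malaria parasite (P. falciparum) lines kept in red blood cells; parasite DNA is measured by SYBR Green fluorescence after lysis, 72 h after compound addition.
Each compound was titrated across a series from about 0.000037 to 29 µM.
The number is the fitted AC50, the concentration giving a half-maximal change in signal; a lower value means higher potency, whether the curve shows a decrease or an increase.
Calls follow the curve class and fit quality: every row here is inconclusive, covering signal-raising curves and weak, poorly fitted, partial or highest-dose-only inhibition curves.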

Values are in µM.
All entries here are filed as inconclusive.
These entries are mostly ones the record files as inconclusive; other results of the assay are not listed here.
A potency from a partial, single-point or poor curve is only a rough figure.
The first word of each remark tells which way the curve ran; it can be opposite to the aim of the assay.

| # | structure | setting | potency (µM) | curve |
|---|---|---|---|---|
| 1 | `CCC(=O)O[C@@](Cc1ccccc1)(c1ccccc1)[C@@H](C)CN(C)C` | N140 | 1 | inhibitor, full curve, poor fit |
| 2 | `CCC(=O)O[C@@](Cc1ccccc1)(c1ccccc1)[C@@H](C)CN(C)C` | DIV17 | 2.869 | inhibitor, partial curve |
| 3 | `CCC(=O)O[C@@](Cc1ccccc1)(c1ccccc1)[C@@H](C)CN(C)C` | PC49 | 2.512 | inhibitor, partial curve |
| 4 | `CC1CC(O)CC(C)(C)C1` (centres undefined) | PC26 | 15.1 | activator, partial curve, poor fit |
| 5 | `Clc1cccc(SC2CCNCC2)n1` | 7G8 | 11.22 | inhibitor, single point |
| 6 | `Clc1cccc(SC2CCNCC2)n1` | CP291 | 0.1901 | inhibitor, partial curve, poor fit |
| 7 | `CCN(CC)CCNC(=O)COc1ccc(OC)cc1` | W2 | 19.01 | inhibitor, single point |
| 8 | `CCN(CC)CCNC(=O)COc1ccc(OC)cc1` | GB4 | 19.01 | inhibitor, partial curve, poor fit |
| 9 | `CC1NCCOC1c1ccccc1` (centres undefined) | CP237 | 11.22 | inhibitor, single point |
| 10 | `CC1NCCOC1c1ccccc1` (centres undefined) | DIV14 | 9.528 | inhibitor, partial curve, poor fit |
| 11 | `CC1NCCOC1c1ccccc1` (centres undefined) | GB4 | 19.01 | inhibitor, partial curve, poor fit |
| 12 | `Cc1nnc2n1-c1ccc(Cl)cc1C(c1ccccc1)=NC2` | CP335 | 4.256 | inhibitor, single point |
| 13 | `Cc1nnc2n1-c1ccc(Cl)cc1C(c1ccccc1)=NC2` | JCK | 12.59 | inhibitor, single point |
| 14 | `Cc1nnc2n1-c1ccc(Cl)cc1C(c1ccccc1)=NC2` | DIV30 | 16.94 | inhibitor, single point |
| 15 | `Cc1nnc2n1-c1ccc(Cl)cc1C(c1ccccc1)=NC2` | CP256 | 15.85 | inhibitor, single point |
| 16 | `Cc1nnc2n1-c1ccc(Cl)cc1C(c1ccccc1)=NC2` | 3D7 | 11.22 | inhibitor, single point |
| 17 | `Cc1nnc2n1-c1ccc(Cl)cc1C(c1ccccc1)=NC2` | ATS189 | 17.78 | inhibitor, partial curve, poor fit |
| 18 | `Cc1nnc2n1-c1ccc(Cl)cc1C(c1ccccc1)=NC2` | ATS95 | 12.59 | inhibitor, single point |
| 19 | `Cc1nnc2n1-c1ccc(Cl)cc1C(c1ccccc1)=NC2` | 7G8 | 17.78 | inhibitor, single point |
| 20 | `Cc1nnc2n1-c1ccc(Cl)cc1C(c1ccccc1)=NC2` | P94_40 | 17.78 | inhibitor, single point |
| 21 | `CCCN(CCC)C(=O)[C@@H](CCC(=O)O)NC(=O)c1ccccc1` | CP297 | 0.0019 | activator, full curve, poor fit |
| 22 | `O=C1c2ccccc2C(=O)C1c1ccc(Br)cc1` | ATS95 | 12.59 | inhibitor, single point |
| 23 | `O=C1c2ccccc2C(=O)C1c1ccc(Br)cc1` | CP315 | 19.01 | inhibitor, single point |
| 24 | `O=C1c2ccccc2C(=O)C1c1ccc(Br)cc1` | PAD | 17.78 | inhibitor, single point |
| 25 | `O=C1c2ccccc2C(=O)C1c1ccc(Br)cc1` | AA1029 | 11.22 | inhibitor, single point |
| 26 | `CC1CCCCN1CCCOC(=O)c1ccccc1` (centres undefined) | W2 | 16.94 | inhibitor, single point |
| 27 | `CC1CCCCN1CCCOC(=O)c1ccccc1` (centres undefined) | GB4 | 10.69 | inhibitor, partial curve, poor fit |
| 28 | `Nc1ccc([As](=O)(O)O)cc1` | Dd2 | 10 | inhibitor, partial curve, poor fit |
| 29 | `Nc1ccc([As](=O)(O)O)cc1` | ICS | 0.3981 | inhibitor, single point |

Repeated from the top, 3 entries:

{"structure": "CCC(=O)O[C@@](Cc1ccccc1)(c1ccccc1)[C@@H](C)CN(C)C", "setting": "N140", "potency (µM)": "1", "curve": "inhibitor, full curve, poor fit"}
{"structure": "CCC(=O)O[C@@](Cc1ccccc1)(c1ccccc1)[C@@H](C)CN(C)C", "setting": "DIV17", "potency (µM)": "2.869", "curve": "inhibitor, partial curve"}
{"structure": "CCC(=O)O[C@@](Cc1ccccc1)(c1ccccc1)[C@@H](C)CN(C)C", "setting": "PC49", "potency (µM)": "2.512", "curve": "inhibitor, partial curve"}